The supplement of paper PMC10849652
The list shows a part of the results.

By UniProt entry, the sequences of proteins in these tests, tags left out. Where a name states a change or a piece, a line headed by the entry shows the natural chain unless it says otherwise.
UniProt Q9Y244: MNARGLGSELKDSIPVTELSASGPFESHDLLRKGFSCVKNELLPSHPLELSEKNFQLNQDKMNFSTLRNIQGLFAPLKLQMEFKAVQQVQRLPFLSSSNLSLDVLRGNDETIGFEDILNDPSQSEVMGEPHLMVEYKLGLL
UniProt Q9GZS1, whole entry, looked up: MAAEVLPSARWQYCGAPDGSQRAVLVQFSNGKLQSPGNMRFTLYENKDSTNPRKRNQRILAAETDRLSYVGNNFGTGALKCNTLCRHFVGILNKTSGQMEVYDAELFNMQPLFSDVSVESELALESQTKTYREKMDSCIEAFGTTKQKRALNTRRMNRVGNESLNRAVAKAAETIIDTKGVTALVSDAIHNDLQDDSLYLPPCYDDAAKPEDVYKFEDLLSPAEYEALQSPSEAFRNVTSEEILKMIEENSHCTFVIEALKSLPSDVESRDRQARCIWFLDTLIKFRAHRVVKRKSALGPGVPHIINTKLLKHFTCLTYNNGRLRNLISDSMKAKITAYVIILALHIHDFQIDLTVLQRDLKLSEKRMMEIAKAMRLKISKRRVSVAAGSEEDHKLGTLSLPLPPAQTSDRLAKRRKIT
UniProt Q15165: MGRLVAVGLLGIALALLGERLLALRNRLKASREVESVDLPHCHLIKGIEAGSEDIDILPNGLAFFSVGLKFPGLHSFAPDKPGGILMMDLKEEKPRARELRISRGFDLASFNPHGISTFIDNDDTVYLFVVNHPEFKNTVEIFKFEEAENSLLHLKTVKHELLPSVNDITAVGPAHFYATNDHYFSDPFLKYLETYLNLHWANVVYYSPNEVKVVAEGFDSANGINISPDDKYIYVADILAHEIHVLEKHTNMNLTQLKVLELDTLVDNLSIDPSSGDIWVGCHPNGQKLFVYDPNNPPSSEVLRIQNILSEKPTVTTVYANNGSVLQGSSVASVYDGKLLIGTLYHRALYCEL
UniProt Q9H9Y6, whole entry, looked up: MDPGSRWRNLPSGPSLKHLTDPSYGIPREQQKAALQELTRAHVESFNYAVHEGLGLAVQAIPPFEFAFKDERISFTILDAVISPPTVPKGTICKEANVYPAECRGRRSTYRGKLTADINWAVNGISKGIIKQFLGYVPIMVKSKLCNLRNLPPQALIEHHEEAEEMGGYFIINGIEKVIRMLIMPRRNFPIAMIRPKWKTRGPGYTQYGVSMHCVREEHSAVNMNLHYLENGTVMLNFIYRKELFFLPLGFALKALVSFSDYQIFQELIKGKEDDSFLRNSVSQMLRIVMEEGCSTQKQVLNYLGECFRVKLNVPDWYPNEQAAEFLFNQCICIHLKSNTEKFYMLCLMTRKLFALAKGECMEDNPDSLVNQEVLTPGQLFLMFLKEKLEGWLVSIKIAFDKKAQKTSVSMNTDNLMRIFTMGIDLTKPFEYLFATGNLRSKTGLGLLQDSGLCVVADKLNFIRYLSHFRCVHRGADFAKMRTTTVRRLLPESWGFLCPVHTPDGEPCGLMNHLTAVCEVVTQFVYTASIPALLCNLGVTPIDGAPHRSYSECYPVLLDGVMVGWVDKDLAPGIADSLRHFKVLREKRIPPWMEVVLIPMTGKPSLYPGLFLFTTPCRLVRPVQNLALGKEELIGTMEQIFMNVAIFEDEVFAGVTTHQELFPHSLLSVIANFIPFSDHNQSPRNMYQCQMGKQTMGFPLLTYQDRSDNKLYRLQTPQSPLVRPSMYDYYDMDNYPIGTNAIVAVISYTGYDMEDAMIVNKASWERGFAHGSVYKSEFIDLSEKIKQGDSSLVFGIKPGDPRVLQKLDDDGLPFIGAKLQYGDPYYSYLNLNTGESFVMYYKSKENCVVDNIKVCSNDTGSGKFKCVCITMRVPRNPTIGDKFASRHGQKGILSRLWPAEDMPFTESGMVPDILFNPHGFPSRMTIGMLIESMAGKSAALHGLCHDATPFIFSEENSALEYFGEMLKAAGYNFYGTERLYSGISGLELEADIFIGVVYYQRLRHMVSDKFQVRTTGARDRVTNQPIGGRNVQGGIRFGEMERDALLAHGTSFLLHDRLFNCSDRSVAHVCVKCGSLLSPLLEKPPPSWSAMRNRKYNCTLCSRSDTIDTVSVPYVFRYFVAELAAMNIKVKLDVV
UniProt O75334: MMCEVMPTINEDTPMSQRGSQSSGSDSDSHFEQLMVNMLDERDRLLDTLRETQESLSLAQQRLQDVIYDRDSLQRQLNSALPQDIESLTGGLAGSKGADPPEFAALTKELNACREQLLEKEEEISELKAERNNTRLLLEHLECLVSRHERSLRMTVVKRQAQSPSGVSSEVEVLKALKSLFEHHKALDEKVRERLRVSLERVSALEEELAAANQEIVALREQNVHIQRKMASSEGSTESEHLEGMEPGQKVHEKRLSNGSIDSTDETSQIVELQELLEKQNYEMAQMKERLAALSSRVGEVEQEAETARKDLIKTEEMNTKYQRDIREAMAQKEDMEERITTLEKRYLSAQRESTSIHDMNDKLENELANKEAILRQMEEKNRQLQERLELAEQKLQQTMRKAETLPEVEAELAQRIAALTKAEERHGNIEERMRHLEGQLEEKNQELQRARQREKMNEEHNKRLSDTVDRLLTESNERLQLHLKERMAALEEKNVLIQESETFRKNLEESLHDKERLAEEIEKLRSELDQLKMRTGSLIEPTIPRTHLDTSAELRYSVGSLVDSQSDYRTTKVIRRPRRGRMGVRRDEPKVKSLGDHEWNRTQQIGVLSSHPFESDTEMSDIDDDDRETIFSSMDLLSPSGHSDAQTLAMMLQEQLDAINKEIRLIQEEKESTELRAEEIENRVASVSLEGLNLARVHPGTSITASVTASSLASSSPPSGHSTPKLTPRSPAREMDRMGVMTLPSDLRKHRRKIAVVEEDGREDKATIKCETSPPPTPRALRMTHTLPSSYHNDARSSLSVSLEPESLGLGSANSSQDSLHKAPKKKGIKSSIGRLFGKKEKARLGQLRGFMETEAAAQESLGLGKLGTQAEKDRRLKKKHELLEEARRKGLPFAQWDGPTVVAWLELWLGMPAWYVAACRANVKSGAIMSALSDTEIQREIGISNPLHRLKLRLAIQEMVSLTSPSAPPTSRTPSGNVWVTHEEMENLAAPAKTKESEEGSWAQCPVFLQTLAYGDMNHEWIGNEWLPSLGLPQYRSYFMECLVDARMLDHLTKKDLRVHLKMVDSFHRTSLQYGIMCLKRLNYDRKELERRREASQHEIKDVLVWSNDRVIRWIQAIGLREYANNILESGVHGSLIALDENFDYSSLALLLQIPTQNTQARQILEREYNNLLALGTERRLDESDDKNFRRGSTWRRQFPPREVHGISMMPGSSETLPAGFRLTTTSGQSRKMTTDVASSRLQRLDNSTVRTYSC
UniProt Q9NZ53: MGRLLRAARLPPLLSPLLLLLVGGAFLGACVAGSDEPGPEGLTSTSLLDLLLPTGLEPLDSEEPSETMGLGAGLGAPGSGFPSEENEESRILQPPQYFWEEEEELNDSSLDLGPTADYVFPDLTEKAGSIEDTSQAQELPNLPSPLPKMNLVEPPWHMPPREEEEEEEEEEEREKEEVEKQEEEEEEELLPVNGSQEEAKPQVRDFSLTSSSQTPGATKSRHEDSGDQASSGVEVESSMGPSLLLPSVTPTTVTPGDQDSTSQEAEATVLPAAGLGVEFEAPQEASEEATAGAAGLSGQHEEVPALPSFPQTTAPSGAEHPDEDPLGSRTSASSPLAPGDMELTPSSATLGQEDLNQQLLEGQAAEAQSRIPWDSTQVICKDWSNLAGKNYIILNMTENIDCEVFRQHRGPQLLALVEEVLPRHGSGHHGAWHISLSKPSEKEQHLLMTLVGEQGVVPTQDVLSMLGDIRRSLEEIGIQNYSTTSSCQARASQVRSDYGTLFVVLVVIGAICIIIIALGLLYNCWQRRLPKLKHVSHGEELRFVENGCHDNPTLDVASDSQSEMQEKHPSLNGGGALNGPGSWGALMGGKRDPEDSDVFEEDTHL
UniProt P16435: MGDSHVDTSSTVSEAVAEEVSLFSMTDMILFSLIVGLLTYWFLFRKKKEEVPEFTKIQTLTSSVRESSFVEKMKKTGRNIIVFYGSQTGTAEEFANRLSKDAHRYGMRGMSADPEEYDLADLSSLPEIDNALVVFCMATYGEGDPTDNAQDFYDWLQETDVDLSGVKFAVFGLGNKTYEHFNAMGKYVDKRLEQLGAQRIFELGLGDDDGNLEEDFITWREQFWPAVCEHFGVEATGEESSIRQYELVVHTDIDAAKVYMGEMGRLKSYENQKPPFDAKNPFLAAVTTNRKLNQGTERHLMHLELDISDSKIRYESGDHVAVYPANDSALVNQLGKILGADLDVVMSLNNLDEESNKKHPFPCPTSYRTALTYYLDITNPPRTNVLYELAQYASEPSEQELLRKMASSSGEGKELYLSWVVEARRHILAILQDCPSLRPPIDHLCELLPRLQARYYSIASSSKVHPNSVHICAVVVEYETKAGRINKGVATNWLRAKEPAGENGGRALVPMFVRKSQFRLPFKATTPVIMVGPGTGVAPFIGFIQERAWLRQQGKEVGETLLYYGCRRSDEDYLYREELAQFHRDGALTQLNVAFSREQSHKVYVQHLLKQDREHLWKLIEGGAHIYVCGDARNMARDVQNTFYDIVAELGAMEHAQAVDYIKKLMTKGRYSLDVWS
UniProt Q9P215: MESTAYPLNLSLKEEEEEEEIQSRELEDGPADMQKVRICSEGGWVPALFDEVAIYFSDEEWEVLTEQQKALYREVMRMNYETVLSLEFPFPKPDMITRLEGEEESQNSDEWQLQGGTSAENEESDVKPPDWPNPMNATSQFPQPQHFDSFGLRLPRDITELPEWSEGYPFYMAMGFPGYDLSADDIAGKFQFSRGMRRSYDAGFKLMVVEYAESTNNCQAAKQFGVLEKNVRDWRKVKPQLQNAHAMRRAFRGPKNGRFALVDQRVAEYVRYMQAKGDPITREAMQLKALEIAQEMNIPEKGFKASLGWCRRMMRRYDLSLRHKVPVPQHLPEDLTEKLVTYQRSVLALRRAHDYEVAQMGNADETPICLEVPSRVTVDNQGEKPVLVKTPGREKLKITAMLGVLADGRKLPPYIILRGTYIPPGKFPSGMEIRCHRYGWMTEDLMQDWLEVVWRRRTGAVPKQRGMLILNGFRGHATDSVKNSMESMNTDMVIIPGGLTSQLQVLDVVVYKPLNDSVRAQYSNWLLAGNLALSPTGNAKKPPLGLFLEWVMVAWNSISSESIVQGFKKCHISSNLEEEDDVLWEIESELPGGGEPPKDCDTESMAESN
UniProt Q9NVU0: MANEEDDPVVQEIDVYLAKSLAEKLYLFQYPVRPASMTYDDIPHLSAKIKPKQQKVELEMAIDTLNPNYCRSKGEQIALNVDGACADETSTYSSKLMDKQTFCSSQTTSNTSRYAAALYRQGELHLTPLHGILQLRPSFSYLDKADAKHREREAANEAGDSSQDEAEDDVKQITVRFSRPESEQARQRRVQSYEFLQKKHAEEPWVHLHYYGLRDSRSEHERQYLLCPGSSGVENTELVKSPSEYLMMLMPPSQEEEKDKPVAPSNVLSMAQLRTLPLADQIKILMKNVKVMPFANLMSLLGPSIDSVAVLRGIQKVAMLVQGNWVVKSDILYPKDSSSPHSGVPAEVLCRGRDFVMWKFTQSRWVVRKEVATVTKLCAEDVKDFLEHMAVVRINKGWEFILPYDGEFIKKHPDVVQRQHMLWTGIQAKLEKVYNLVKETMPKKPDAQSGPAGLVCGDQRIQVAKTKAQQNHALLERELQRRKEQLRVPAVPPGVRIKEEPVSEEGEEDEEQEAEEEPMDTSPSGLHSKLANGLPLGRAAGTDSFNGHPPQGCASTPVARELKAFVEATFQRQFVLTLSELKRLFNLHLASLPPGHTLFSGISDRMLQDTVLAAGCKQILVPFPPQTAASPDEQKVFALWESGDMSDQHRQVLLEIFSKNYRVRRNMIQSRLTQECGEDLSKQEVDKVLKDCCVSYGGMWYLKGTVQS
UniProt O95707: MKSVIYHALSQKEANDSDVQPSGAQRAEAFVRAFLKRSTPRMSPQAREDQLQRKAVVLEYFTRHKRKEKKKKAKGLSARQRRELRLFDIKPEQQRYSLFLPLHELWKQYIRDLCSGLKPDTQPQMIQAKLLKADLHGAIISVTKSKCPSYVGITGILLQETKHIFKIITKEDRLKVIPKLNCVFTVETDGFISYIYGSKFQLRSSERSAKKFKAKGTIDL
UniProt P23284: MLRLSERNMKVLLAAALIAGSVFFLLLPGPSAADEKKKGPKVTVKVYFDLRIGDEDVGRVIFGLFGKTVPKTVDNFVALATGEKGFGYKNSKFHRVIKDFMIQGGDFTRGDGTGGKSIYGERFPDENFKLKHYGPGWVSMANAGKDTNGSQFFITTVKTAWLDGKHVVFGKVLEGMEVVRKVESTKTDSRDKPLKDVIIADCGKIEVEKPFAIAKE
UniProt Q9NR33: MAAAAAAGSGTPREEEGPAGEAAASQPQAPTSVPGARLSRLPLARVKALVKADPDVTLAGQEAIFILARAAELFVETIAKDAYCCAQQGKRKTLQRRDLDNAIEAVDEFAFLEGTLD

Key:
Experiment in all cases: log2 fold change, soluble protein after heating vs DMSO (PISA); higher = thermal stabilisation; K562 lysate, 10 uM; active = over 0.2 and 3.5 SD of the protein, either way, in both replicates (recomputed)
[1] = compound: CS(=O)(=O)CCNCc1ccc(-c2ccc3ncnc(Nc4ccc(OCc5cccc(F)c5)c(Cl)c4)c3c2)o1 [lapatinib]
Summary of the method: (§1)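 Following dounce homogenisation of K562 pellets in PBS pH 7.4 with 1 mM MgCl2, crude extract at 1 mg/mL protein was incubated for 30 min with 10 μM compound. Aliquots were then heated for 3 min over 48°C-58°C and pooled, NP-40 was added to 0.5% at 4°C, and soluble protein was recovered as the supernatant at 21,000xg for 90 min. Channel-sum-equalised TMTpro 16plex LC-MS/MS quantified this protein. Each value, from duplicates, is a log-two fold change in thermal stability relative to solvent controls.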

[2] = compound: CS(=O)(=O)N1CCN(Cc2cc3nc(-c4cccc5[nH]ncc45)nc(N4CCOCC4)c3s2)CC1 [pictilisib]
Summary of the method: as §1

[3] = compound: C[C@@H](Oc1cc(-c2cnn(C3CCNCC3)c2)cnc1N)c1c(Cl)ccc(F)c1Cl [crizotinib]
Summary of the method: as §1

[4] = compound: C[C@H](C1=CC=C(C=C1)C(=O)NC2=C3C=CNC3=NC=C2)N
Summary of the method: as §1

[5] = compound: C[C@H](Nc1ncnc2nc[nH]c12)c1cc2cccc(Cl)c2c(=O)n1-c1ccccc1 [duvelisib]
Summary of the method: as §1

[6] = compound: Cc1cc(Nc2cc(CN3CCOCC3)c3nc(C)c(Cc4ccc(Cl)cc4F)n3n2)n[nH]1 [gandotinib]
Summary of the method: as §1

[7] = compound: Cc1cc(Nc2cc(N3CCN(C)CC3)nc(Sc3ccc(NC(=O)C4CC4)cc3)n2)n[nH]1 [tozasertib]
Summary of the method: as §1

[8] = compound: Cc1ccc(-n2nc(C(C)(C)C)cc2NC(=O)Nc2ccc(OCCN3CCOCC3)c3ccccc23)cc1 [doramapimod]
Summary of the method: as §1

[9] = compound: Cc1ccc(NC(=O)c2ccc(CN3CC[C@H](N(C)C)C3)c(C(F)(F)F)c2)cc1Nc1nccc(-c2cncnc2)n1 [bafetinib]
Summary of the method: as §1

[10] = compound: Cc1cccc(CC(=O)N2CCc3c2ccc(-c2cn(C)c4ncnc(N)c24)c3F)n1
Summary of the method: as §1

[11] = compound: Cc1cn(-c2cc(NC(=O)c3ccc(C)c(Nc4nccc(-c5cccnc5)n4)c3)cc(C(F)(F)F)c2)cn1 [nilotinib]
Summary of the method: as §1

[12] = compound: Cc1nc(Nc2n[nH]c3c2CN(C(=O)N[C@H](CN(C)C)c2ccccc2)C3(C)C)c2sccc2n1
Summary of the method: as §1

[13] = compound: Cc1nc(Nc2ncc(C(=O)Nc3c(C)cccc3Cl)s2)cc(N2CCN(CCO)CC2)n1 [dasatinib]
Summary of the method: as §1

[14] = compound: Cc1ncc(-c2ccnc(Nc3ccc(S(C)(=O)=O)cc3)n2)n1C(C)C
Summary of the method: as §1

[15] = compound: Cn1cc(-c2ccc3c(c2)CCN3C(=O)Cc2cccc(C(F)(F)F)c2)c2c(N)ncnc21
Summary of the method: as §1

[16] = compound: Cn1cc(CNCC2CCN(c3ncc(C(=O)NO)cn3)CC2)c2ccccc21 [quisinostat]
Summary of the method: as §1

[17] = compound: Cn1cncc1[C@@](N)(c1ccc(Cl)cc1)c1ccc2c(c1)c(-c1cccc(Cl)c1)cc(=O)n2C [tipifarnib]
Summary of the method: as §1

[18] = compound: NC(=O)Nc1cc(-c2cccc(F)c2)sc1C(=O)N[C@H]1CCCNC1
Summary of the method: as §1

[19] = compound: NC(=O)c1cnc(N[C@@H]2CCCC[C@@H]2N)nc1Nc1cccc(-n2nccn2)c1
Summary of the method: as §1

[20] = compound: NC1(c2ccc(-c3nc4ccn5c(=O)[nH]nc5c4cc3-c3ccccc3)cc2)CCC1
Summary of the method: as §1

Row | Target | log2 fold change [1] | log2 fold change [2] | log2 fold change [3] | log2 fold change [4] | log2 fold change [5] | log2 fold change [6] | log2 fold change [7] | log2 fold change [8] | log2 fold change [9] | log2 fold change [10] | log2 fold change [11] | log2 fold change [12] | log2 fold change [13] | log2 fold change [14] | log2 fold change [15] | log2 fold change [16] | log2 fold change [17] | log2 fold change [18] | log2 fold change [19] | log2 fold change [20]
1 | POMP (UniProt Q9Y244) | inactive: 0.048 | inactive: 0.031 | inactive: -0.054 | inactive: 0.221 | inactive: 0.11 | inactive: -0.063 | inactive: 0.022 | inactive: 0.038 | inactive: 0.017 | inactive: -0.038 | inactive: 0.021 | inactive: 0.057 | inactive: 0.048 | active: 0.301 | inactive: 0 | inactive: -0.054 | inactive: -0.046 | inactive: -0.007 | inactive: 0.039 | inactive: -0.002
2 | POLR1E (UniProt Q9GZS1) | inactive: -0.033 | inactive: -0.028 | inactive: -0.016 | inactive: 0.02 | inactive: 0 | inactive: -0.054 | inactive: 0.047 | inactive: -0.004 | inactive: -0.061 | inactive: -0.027 | inactive: -0.014 | inactive: 0.021 | inactive: -0.067 | inactive: 0 | inactive: 0.043 | inactive: -0.015 | inactive: 0.005 | inactive: 0.045 | inactive: -0.014 | inactive: -0.013
3 | PLOD1 (UniProt Q02809) | inactive: -0.005 | inactive: 0.017 | inactive: -0.03 | inactive: -0.043 | inactive: -0.003 | inactive: -0.004 | inactive: 0.029 | inactive: 0.015 | inactive: -0.032 | inactive: 0.03 | inactive: -0.016 | inactive: -0.02 | inactive: 0.008 | inactive: -0.049 | inactive: 0.004 | inactive: -0.008 | inactive: -0.01 | inactive: 0.03 | inactive: -0.016 | inactive: 0.018
4 | PON2 (UniProt Q15165) | inactive: -0.033 | inactive: 0.01 | inactive: -0.008 | inactive: 0.084 | inactive: -0.065 | inactive: -0.021 | inactive: -0.035 | inactive: -0.016 | inactive: -0.048 | inactive: -0.074 | inactive: 0.155 | inactive: -0.009 | inactive: 0.13 | inactive: -0.097 | inactive: -0.059 | inactive: -0.089 | inactive: -0.158 | inactive: 0 | inactive: 0.006 | inactive: -0.047
5 | POLR1B isoform 3 (UniProt Q9H9Y6) | inactive: -0.075 | inactive: -0.037 | inactive: 0.021 | inactive: -0.107 | inactive: 0.029 | inactive: 0.013 | inactive: 0.006 | inactive: -0.018 | inactive: -0.058 | inactive: 0.041 | inactive: 0.011 | inactive: 0.013 | inactive: -0.017 | inactive: 0.021 | inactive: 0.05 | inactive: 0.037 | inactive: -0.017 | inactive: 0.021 | inactive: -0.04 | inactive: 0.029
6 | PPFIA2 (UniProt O75334) | inactive: -0.014 | inactive: 0.031 | inactive: -0.212 | active: -0.244 | inactive: 0.001 | inactive: 0.139 | inactive: -0.028 | inactive: 0.023 | inactive: 0.019 | inactive: 0.147 | inactive: -0.046 | inactive: 0.027 | inactive: -0.064 | inactive: -0.022 | inactive: 0.01 | inactive: -0.238 | inactive: -0.029 | inactive: 0.017 | inactive: 0.024 | inactive: -0.089
7 | POLR2F (UniProt P61218) | inactive: 0.036 | inactive: -0.062 | inactive: -0.024 | active: 1.12 | inactive: -0.018 | inactive: -0.166 | inactive: 0.156 | inactive: 0.025 | inactive: -0.076 | inactive: -0.189 | inactive: 0.023 | inactive: -0.019 | inactive: 0.274 | inactive: 0.107 | inactive: -0.015 | inactive: -0.034 | inactive: 0.015 | inactive: 0.008 | inactive: -0.052 | inactive: -0.021
8 | PODXL2 (UniProt Q9NZ53) | inactive: 0.167 | inactive: -0.016 | inactive: 0.034 | inactive: -0.01 | inactive: -0.138 | inactive: -0.01 | inactive: 0.055 | inactive: -0.068 | inactive: -0.022 | inactive: 0.014 | inactive: 0.043 | inactive: 0.023 | inactive: 0.296 | inactive: 0.024 | inactive: -0.044 | inactive: -0.059 | inactive: -0.055 | inactive: 0.007 | inactive: -0.148 | inactive: 0.002
9 | POR (UniProt P16435) | inactive: -0.029 | inactive: -0.005 | inactive: 0.052 | inactive: -0.007 | inactive: 0.002 | inactive: 0.029 | inactive: -0.013 | inactive: -0.031 | inactive: 0.009 | inactive: 0.021 | inactive: -0.03 | inactive: -0.011 | inactive: 0.033 | inactive: -0.017 | inactive: 0.003 | inactive: 0.026 | inactive: -0.019 | inactive: -0.002 | inactive: -0.007 | inactive: -0.032
10 | POLR2H (UniProt P52434) | inactive: -0.003 | inactive: 0.027 | inactive: -0.047 | inactive: -0.067 | inactive: 0.008 | inactive: 0.027 | inactive: -0.047 | inactive: -0.015 | inactive: 0.008 | inactive: 0.049 | inactive: -0.018 | inactive: -0.012 | inactive: 0.026 | inactive: 0.013 | inactive: -0.044 | inactive: -0.015 | inactive: 0.019 | inactive: 0.026 | inactive: 0.02 | inactive: -0.011
11 | POLR2E (UniProt P19388) | inactive: -0.027 | inactive: 0.03 | inactive: 0 | inactive: 0.004 | inactive: -0.019 | inactive: -0.034 | inactive: 0.004 | inactive: -0.041 | inactive: -0.059 | inactive: 0.029 | inactive: -0.026 | inactive: -0.001 | inactive: -0.024 | inactive: 0.009 | inactive: -0.002 | inactive: -0.003 | inactive: 0.003 | inactive: -0.003 | inactive: 0.017 | inactive: 0.021
12 | POGK (UniProt Q9P215) | inactive: -0.055 | inactive: -0.026 | inactive: 0.022 | active: -0.384 | inactive: 0.01 | inactive: 0.095 | inactive: -0.101 | inactive: 0.111 | inactive: -0.109 | inactive: 0.142 | inactive: -0.04 | inactive: 0.005 | inactive: -0.068 | inactive: -0.001 | inactive: -0.023 | inactive: -0.086 | inactive: 0.007 | inactive: 0.108 | inactive: 0.008 | inactive: -0.006
13 | POLR3E (UniProt Q9NVU0) | inactive: -0.014 | inactive: -0.001 | inactive: 0.003 | inactive: -0.001 | inactive: 0.01 | inactive: -0.028 | inactive: -0.011 | inactive: -0.001 | inactive: -0.018 | inactive: 0.013 | inactive: 0.017 | inactive: -0.054 | inactive: -0.035 | inactive: -0.018 | inactive: 0.018 | inactive: -0.023 | inactive: 0.04 | inactive: 0.037 | inactive: 0.009 | inactive: -0.001
14 | POP4 (UniProt O95707) | inactive: 0.004 | inactive: 0.02 | inactive: 0.016 | inactive: 0.002 | inactive: 0.029 | inactive: 0.044 | inactive: 0.011 | inactive: -0.013 | inactive: 0.035 | inactive: -0.029 | inactive: 0.08 | inactive: -0.063 | inactive: 0.06 | inactive: 0 | inactive: 0.014 | inactive: -0.016 | inactive: 0.018 | inactive: 0.036 | inactive: -0.004 | inactive: -0.011
15 | PPIB (UniProt P23284) | inactive: -0.021 | inactive: -0.002 | inactive: 0.016 | inactive: -0.014 | inactive: 0.002 | inactive: 0.002 | inactive: 0.022 | inactive: -0.02 | inactive: -0.025 | inactive: -0.014 | inactive: -0.004 | inactive: -0.008 | inactive: -0.01 | inactive: -0.013 | inactive: -0.026 | inactive: 0.04 | inactive: 0.009 | inactive: -0.006 | inactive: 0.006 | inactive: 0.003
16 | POLE4 (UniProt Q9NR33) | inactive: -0.013 | inactive: -0.071 | inactive: 0.097 | inactive: -0.001 | inactive: 0.005 | inactive: 0.049 | inactive: 0.029 | inactive: 0.05 | inactive: -0.161 | inactive: -0.006 | inactive: 0.078 | inactive: -0.152 | inactive: -0.023 | inactive: 0.102 | inactive: 0.031 | inactive: 0.135 | inactive: 0.052 | inactive: -0.023 | inactive: -0.051 | inactive: -0.05

Shown comma-delimited: entries from further up
Row,Target,log2 fold change [1],log2 fold change [2],log2 fold change [3],log2 fold change [4],log2 fold change [5],log2 fold change [6],log2 fold change [7],log2 fold change [8],log2 fold change [9],log2 fold change [10],log2 fold change [11],log2 fold change [12],log2 fold change [13],log2 fold change [14],log2 fold change [15],log2 fold change [16],log2 fold change [17],log2 fold change [18],log2 fold change [19],log2 fold change [20]
1,POMP (UniProt Q9Y244),inactive: 0.048,inactive: 0.031,inactive: -0.054,inactive: 0.221,inactive: 0.11,inactive: -0.063,inactive: 0.022,inactive: 0.038,inactive: 0.017,inactive: -0.038,inactive: 0.021,inactive: 0.057,inactive: 0.048,active: 0.301,inactive: 0,inactive: -0.054,inactive: -0.046,inactive: -0.007,inactive: 0.039,inactive: -0.002
2,POLR1E (UniProt Q9GZS1),inactive: -0.033,inactive: -0.028,inactive: -0.016,inactive: 0.02,inactive: 0,inactive: -0.054,inactive: 0.047,inactive: -0.004,inactive: -0.061,inactive: -0.027,inactive: -0.014,inactive: 0.021,inactive: -0.067,inactive: 0,inactive: 0.043,inactive: -0.015,inactive: 0.005,inactive: 0.045,inactive: -0.014,inactive: -0.013
